Test results from PMC3838380, “Investigating the Allosteric Regulation of YfiN from Pseudomonas aeruginosa: Clues from the Structure of the Catalytic Domain” (PLoS ONE, 2013).
No constants are given. Whether binding was seen depends on the method and setting.

Molecular target: YfiN_(GGDEF), shorter construct containing only the GGDEF domain of YfiN (Pseudomonas aeruginosa) (UniProt Q9I4L5)
Assay: SEC; Superdex 75 10/300, 10 mM Tris-HCl pH 8.0, 100 mM NaCl, 2% glycerol, after the affinity chromatography step; both purified

B1: YfiN_(GGDEF), shorter construct containing only the GGDEF domain of YfiN (domain or fragment, UniProt Q9I4L5 232-435)
chain: ESWQARLQDENASLAHQAHHDSLTSLPNRAFFEGRLSRALRDANEHREQLAVLFIDSDRFKEINDRLGHAAGDTVLVNIAMRIRGQLRESDLVARLGGDEFAVLLAPLASGADALRIADNIIASMQAPIRLSDGSTVSTSLTIGIALYPEHADTPAALLHDADMAMYIAKRQARGSRRLAELNDPRILQEEKEIDSATPEAPPK
  binding: no binding
